These are yes or no findings as the source states them, for the method shown. Binding seen in cells or lysates may run through a third protein. These calls come from enrichment with a bait or labelling near it, and not all partners need be listed. For some assays here: A no says only that the protein was not detected with the bait.
T1: DPPA4 (human (endogenous in NT2)) (UniProt Q7L190)
T1 sequence: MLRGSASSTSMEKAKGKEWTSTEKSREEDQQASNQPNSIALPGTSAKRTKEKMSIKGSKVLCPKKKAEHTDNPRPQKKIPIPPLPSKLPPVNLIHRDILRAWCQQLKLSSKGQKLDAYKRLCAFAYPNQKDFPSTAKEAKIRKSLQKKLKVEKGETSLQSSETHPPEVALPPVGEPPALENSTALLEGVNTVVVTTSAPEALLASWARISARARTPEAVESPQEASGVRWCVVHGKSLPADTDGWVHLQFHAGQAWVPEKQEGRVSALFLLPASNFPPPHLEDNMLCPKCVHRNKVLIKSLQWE

The chains behind the UniProt entries cited, without tags or fusion partners.
UniProt Q9H9S0: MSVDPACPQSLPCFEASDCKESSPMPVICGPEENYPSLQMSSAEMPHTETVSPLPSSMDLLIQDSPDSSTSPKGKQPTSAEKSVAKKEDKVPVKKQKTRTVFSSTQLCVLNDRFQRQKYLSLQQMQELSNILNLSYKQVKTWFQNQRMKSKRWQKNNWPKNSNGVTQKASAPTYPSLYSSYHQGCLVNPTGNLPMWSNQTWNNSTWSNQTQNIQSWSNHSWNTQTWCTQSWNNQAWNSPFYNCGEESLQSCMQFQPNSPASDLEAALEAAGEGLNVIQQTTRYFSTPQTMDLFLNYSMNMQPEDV
UniProt Q9BSM1: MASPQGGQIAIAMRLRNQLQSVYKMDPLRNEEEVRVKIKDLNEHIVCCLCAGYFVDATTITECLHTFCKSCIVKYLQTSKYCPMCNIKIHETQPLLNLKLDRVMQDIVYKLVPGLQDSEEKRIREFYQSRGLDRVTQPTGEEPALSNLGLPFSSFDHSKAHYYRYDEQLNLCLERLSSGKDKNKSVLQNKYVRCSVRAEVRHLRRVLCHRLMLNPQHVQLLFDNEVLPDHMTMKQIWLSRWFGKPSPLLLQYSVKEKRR
UniProt Q01860: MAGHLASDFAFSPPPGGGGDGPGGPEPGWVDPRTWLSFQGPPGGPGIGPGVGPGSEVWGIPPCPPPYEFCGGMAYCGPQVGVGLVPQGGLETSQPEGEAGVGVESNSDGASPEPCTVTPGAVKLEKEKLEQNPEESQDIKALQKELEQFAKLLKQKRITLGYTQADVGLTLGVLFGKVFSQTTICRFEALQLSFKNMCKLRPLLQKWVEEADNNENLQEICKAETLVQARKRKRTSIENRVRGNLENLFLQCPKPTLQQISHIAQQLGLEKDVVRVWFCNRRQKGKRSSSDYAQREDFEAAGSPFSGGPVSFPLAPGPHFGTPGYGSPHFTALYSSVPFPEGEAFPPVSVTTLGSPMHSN
UniProt Q6W2J9: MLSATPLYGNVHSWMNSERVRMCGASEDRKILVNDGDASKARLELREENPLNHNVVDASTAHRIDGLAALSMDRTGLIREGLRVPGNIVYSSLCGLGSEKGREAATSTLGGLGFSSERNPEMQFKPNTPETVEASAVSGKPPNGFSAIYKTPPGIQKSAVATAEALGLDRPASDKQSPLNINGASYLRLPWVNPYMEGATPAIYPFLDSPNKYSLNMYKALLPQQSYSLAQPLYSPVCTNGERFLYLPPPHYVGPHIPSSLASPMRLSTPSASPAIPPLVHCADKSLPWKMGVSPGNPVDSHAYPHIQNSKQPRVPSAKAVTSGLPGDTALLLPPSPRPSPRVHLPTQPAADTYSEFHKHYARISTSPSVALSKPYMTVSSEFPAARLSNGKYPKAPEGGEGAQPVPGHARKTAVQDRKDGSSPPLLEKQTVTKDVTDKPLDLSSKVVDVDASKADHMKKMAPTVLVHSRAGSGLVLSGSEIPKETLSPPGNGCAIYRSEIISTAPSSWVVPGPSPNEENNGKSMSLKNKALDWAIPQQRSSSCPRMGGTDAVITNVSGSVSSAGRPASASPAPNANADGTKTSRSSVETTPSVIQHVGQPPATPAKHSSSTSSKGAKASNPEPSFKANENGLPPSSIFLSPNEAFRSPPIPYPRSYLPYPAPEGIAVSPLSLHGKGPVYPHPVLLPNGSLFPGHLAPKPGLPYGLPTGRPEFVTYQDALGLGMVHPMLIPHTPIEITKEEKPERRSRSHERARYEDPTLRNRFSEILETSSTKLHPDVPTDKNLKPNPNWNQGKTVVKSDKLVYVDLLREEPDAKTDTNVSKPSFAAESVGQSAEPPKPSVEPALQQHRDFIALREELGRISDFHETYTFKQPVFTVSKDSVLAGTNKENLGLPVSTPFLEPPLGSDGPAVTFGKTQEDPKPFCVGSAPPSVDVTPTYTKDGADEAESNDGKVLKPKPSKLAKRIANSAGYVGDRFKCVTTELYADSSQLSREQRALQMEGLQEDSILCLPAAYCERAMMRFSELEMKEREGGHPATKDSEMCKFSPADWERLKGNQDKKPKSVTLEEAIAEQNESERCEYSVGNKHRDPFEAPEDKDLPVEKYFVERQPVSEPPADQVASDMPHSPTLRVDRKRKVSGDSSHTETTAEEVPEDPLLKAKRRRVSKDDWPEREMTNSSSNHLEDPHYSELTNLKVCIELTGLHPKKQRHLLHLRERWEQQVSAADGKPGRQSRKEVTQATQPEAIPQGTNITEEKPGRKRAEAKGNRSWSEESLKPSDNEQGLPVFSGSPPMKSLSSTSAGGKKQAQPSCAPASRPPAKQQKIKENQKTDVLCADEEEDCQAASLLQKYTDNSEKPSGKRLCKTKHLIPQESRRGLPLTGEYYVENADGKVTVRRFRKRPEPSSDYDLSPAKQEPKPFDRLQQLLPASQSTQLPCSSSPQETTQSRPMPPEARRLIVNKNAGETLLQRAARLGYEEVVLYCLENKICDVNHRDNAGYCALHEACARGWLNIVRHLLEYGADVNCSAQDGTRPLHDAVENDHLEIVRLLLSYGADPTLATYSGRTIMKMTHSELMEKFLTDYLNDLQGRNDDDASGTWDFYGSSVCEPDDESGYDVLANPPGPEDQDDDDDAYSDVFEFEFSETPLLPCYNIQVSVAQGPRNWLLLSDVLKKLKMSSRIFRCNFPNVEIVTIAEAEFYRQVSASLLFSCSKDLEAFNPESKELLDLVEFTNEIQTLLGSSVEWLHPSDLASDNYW


Columns and labels:
Assay in all cases: affinity purification with mass spectrometry; endogenous immunoprecipitation (antibodies to PCGF1, BCOR, DPPA4, NANOG or OCT4) from nuclear lysate of undifferentiated NT2 cells, trypsin digest on beads, label-free mass spectrometry (Q Exactive), volcano plot against IgG beads
[1] = biological target: NANOG (human (endogenous in NT2)) (UniProt Q9H9S0)
[2] = biological target: PCGF1 (human (endogenous in NT2)) (UniProt Q9BSM1)
[3] = biological target: OCT4 (human (endogenous in NT2)) (UniProt Q01860)
[4] = biological target: BCOR (human (endogenous in NT2)) (UniProt Q6W2J9)
[5] = biological target: T1, DPPA4 (human (endogenous in NT2))

binding [1]	binding [2]	Binder	further results
binds	–	PHC2 (protein, UniProt Q8IXK0 1-858) MENELPVPHTSSSACATSSTSGASSSSGCNNSSSGGSGRPTGPQISVYSGIPDRQTVQVIQQALHRQPSTAAQYLQQMYAAQQQHLMLQTAALQQQHLSSAQLQSLAAVQQASLVSNRQGSTSGSNVSAQAPAQSSSINLAASPAAAQLLNRAQSVNSAAASGIAQQAVLLGNTSSPALTASQAQMYLRAQMLIFTPTATVATVQPELGTGSPARPPTPAQVQNLTLRTQQTPAAAASGPTPTQPVLPSLALKPTPGGSQPLPTPAQSRNTAQASPAGAKPGIADSVMEPHKKGDGNSSVPGSMEGRAGLSRTVPAVAAHPLIAPAYAQLQPHQLLPQPSSKHLQPQFVIQQQPQPQQQQPPPQQSRPVLQAEPHPQLASVSPSVALQPSSEAHAMPLGPVTPALPLQCPTANLHKPGGSQQCHPPTPDTGPQNGHPEGVPHTPQRRFQHTSAVILQLQPASPPQQCVPDDWKEVAPGEKSVPETRSGPSPHQQAIVTAMPGGLPVPTSPNIQPSPAHETGQGIVHALTDLSSPGMTSGNGNSASSIAGTAPQNGENKPPQAIVKPQILTHVIEGFVIQEGAEPFPVGRSSLLVGNLKKKYAQGFLPEKLPQQDHTTTTDSEMEEPYLQESKEEGAPLKLKCELCGRVDFAYKFKRSKRFCSMACAKRYNVGCTKRVGLFHSDRSKLQKAGAATHNRRRASKASLPPLTKDTKKQPTGTVPLSVTAALQLTHSQEDSSRCSDNSSYEEPLSPISASSSTSRRRQGQRDLELPDMHMRDLVGMGHHFLPSEPTKWNVEDVYEFIRSLPGCQEIAEEFRAQEIDGQALLLLKEDHLMSAMNIKLGPALKIYARISMLKDS	–
–	binds	RYBP (protein, UniProt Q8N488 1-228) MTMGDKKSPTRPKRQAKPAADEGFWDCSVCTFRNSAEAFKCSICDVRKGTSTRKPRINSQLVAQQVAQQYATPPPPKKEKKEKVEKQDKEKPEKDKEISPSVTKKNTNKKTKPKSDILKDPPSEANSIQSANATTKTSETNHTSRPRLKNVDRSTAQQLAVTVGNVTVIITDFKEKTRSSSTSSSTVTSSAGSEQQNQSSSGSESTDKGSSRSSTPKGDMSAVNDESF	binding [3]: no binding; binding [4]: binds; binding [5]: no binding
–	binds	SASS6 (protein, UniProt Q6UVJ0 1-657) MSQVLFHQLVPLQVKCKDCEERRVSIRMSIELQSVSNPVHRKDLVIRLTDDTDPFFLYNLVISEEDFQSLKFQQGLLVDFLAFPQKFIDLLQQCTQEHAKEIPRFLLQLVSPAAILDNSPAFLNVVETNPFKHLTHLSLKLLPGNDVEIKKFLAGCLKCSKEEKLSLMQSLDDATKQLDFTRKTLAEKKQELDKLRNEWASHTAALTNKHSQELTNEKEKALQAQVQYQQQHEQQKKDLEILHQQNIHQLQNRLSELEAANKDLTERKYKGDSTIRELKAKLSGVEEELQRTKQEVLSLRRENSTLDVECHEKEKHVNQLQTKVAVLEQEIKDKDQLVLRTKEAFDTIQEQKVVLEENGEKNQVQLGKLEATIKSLSAELLKANEIIKKLQGDLKTLMGKLKLKNTVTIQQEKLLAEKEEKLQKEQKELQDVGQSLRIKEQEVCKLQEQLEATVKKLEESKQLLKNNEKLITWLNKELNENQLVRKQDVLGPSTTPPAHSSSNTIRSGISPNLNVVDGRLTYPTCGIGYPVSSAFAFQNTFPHSISAKNTSHPGSGTKVQFNLQFTKPNASLGDVQSGATISMPCSTDKENGENVGLESKYLKKREDSIPLRGLSQNLFSNSDHQRDGTLGALHTSSKPTALPSASSAYFPGQLPNS	–

The next lines start with the binder.

Binder	binding [1]	binding [2]	further results
DPPA4 (protein, UniProt Q7L190 1-304) MLRGSASSTSMEKAKGKEWTSTEKSREEDQQASNQPNSIALPGTSAKRTKEKMSIKGSKVLCPKKKAEHTDNPRPQKKIPIPPLPSKLPPVNLIHRDILRAWCQQLKLSSKGQKLDAYKRLCAFAYPNQKDFPSTAKEAKIRKSLQKKLKVEKGETSLQSSETHPPEVALPPVGEPPALENSTALLEGVNTVVVTTSAPEALLASWARISARARTPEAVESPQEASGVRWCVVHGKSLPADTDGWVHLQFHAGQAWVPEKQEGRVSALFLLPASNFPPPHLEDNMLCPKCVHRNKVLIKSLQWE	–	binds	–
PCGF2 (protein, UniProt P35227 1-344) MHRTTRIKITELNPHLMCALCGGYFIDATTIVECLHSFCKTCIVRYLETNKYCPMCDVQVHKTRPLLSIRSDKTLQDIVYKLVPGLFKDEMKRRRDFYAAYPLTEVPNGSNEDRGEVLEQEKGALSDDEIVSLSIEFYEGARDRDEKKGPLENGDGDKEKTGVRFLRCPAAMTVMHLAKFLRNKMDVPSKYKVEVLYEDEPLKEYYTLMDIAYIYPWRRNGPLPLKYRVQPACKRLTLATVPTPSEGTNTSGASECESVSDKAPSPATLPATSSSLPSPATPSHGSPSSHGPPATHPTSPTPPSTASGATTAANGGSLNCLQTPSSTSRGRKMTVNGAPVPPLT	binds	–	–
PATZ1 (protein, UniProt Q9HBE1 1-687) MERVNDASCGPSGCYTYQVSRHSTEMLHNLNQQRKNGGRFCDVLLRVGDESFPAHRAVLAACSEYFESVFSAQLGDGGAADGGPADVGGATAAPGGGAGGSRELEMHTISSKVFGDILDFAYTSRIVVRLESFPELMTAAKFLLMRSVIEICQEVIKQSNVQILVPPARADIMLFRPPGTSDLGFPLDMTNGAALAANSNGIAGSMQPEEEAARAAGAAIAGQASLPVLPGVDRLPMVAGPLSPQLLTSPFPSVASSAPPLTGKRGRGRPRKANLLDSMFGSPGGLREAGILPCGLCGKVFTDANRLRQHEAQHGVTSLQLGYIDLPPPRLGENGLPISEDPDGPRKRSRTRKQVACEICGKIFRDVYHLNRHKLSHSGEKPYSCPVCGLRFKRKDRMSYHVRSHDGSVGKPYICQSCGKGFSRPDHLNGHIKQVHTSERPHKCQTCNASFATRDRLRSHLACHEDKVPCQVCGKYLRAAYMADHLKKHSEGPSNFCSICNRGFSSASYLKVHVKTHHGVPLPQVSRHQEPILNGGAAFHCARTYGNKEGQKCSHQDPIESSDSYGDLSDASDLKTPEKQSANGSFSCDMAVPKNKMESDGEKKYPCPECGSFFRSKSYLNKHIQKVHVRALGGPLGDLGPALGSPFSPQQNMSLLESFGFQIVQSAFASSLVDPEVDQQPMGPEGK	–	binds	–
PHC1 (protein, UniProt P78364 1-1004) METESEQNSNSTNGSSSSGGSSRPQIAQMSLYERQAVQALQALQRQPNAAQYFHQFMLQQQLSNAQLHSLAAVQQATIAASRQASSPNTSTTQQQTTTTQASINLATTSAAQLISRSQSVSSPSATTLTQSVLLGNTTSPPLNQSQAQMYLRPQLGNLLQVNRTLGRNVPLASQLILMPNGAVAAVQQEVPSAQSPGVHADADQVQNLAVRNQQASAQGPQMQGSTQKAIPPGASPVSSLSQASSQALAVAQASSGATNQSLNLSQAGGGSGNSIPGSMGPGGGGQAHGGLGQLPSSGMGGGSCPRKGTGVVQPLPAAQTVTVSQGSQTEAESAAAKKAEADGSGQQNVGMNLTRTATPAPSQTLISSATYTQIQPHSLIQQQQQIHLQQKQVVIQQQIAIHHQQQFQHRQSQLLHTATHLQLAQQQQQQQQQQQQQQQPQATTLTAPQPPQVPPTQQVPPSQSQQQAQTLVVQPMLQSSPLSLPPDAAPKPPIPIQSKPPVAPIKPPQLGAAKMSAAQQPPPHIPVQVVGTRQPGTAQAQALGLAQLAAAVPTSRGMPGTVQSGQAHLASSPPSSQAPGALQECPPTLAPGMTLAPVQGTAHVVKGGATTSSPVVAQVPAAFYMQSVHLPGKPQTLAVKRKADSEEERDDVSTLGSMLPAKASPVAESPKVMDEKSSLGEKAESVANVNANTPSSELVALTPAPSVPPPTLAMVSRQMGDSKPPQAIVKPQILTHIIEGFVIQEGAEPFPVGCSQLLKESEKPLQTGLPTGLTENQSGGPLGVDSPSAELDKKANLLKCEYCGKYAPAEQFRGSKRFCSMTCAKRYNVSCSHQFRLKRKKMKEFQEANYARVRRRGPRRSSSDIARAKIQGKCHRGQEDSSRGSDNSSYDEALSPTSPGPLSVRAGHGERDLGNPNTAPPTPELHGINPVFLSSNPSRWSVEEVYEFIASLQGCQEIAEEFRSQEIDGQALLLLKEEHLMSAMNIKLGPALKICAKINVLKET	binds	–	–
LETMD1 (protein, UniProt Q6P1Q0 1-360) MALSRVCWARSAVWGSAVTPGHFVTRRLQLGRSGLAWGAPRSSKLHLSPKADVKNLMSYVVTKTKAINGKYHRFLGRHFPRFYVLYTIFMKGLQMLWADAKKARRIKTNMWKHNIKFHQLPYREMEHLRQFRQDVTKCLFLGIISIPPFANYLVFLLMYLFPRQLLIRHFWTPKQQTDFLDIYHAFRKQSHPEIISYLEKVIPLISDAGLRWRLTDLCTKIQRGTHPAIHDILALRECFSNHPLGMNQLQALHVKALSRAMLLTSYLPPPLLRHRLKTHTTVIHQLDKALAKLGIGQLTAQEVKSACYLRGLNSTHIGEDRCRTWLGEWLQISCSLKEAELSLLLHNVVLLSTNYLGTRR	–	binds	–

Source: article PMC4685312
